According to article PMC3873263:
These are yes or no findings as the source states them, for the method shown. Binding seen in cells or lysates may run through a third protein. Some binding calls cover weakened binding; strength is not graded here.

Amino acid sequences for entries named in this document (tags omitted). Residues count along the entry.
UniProt Q9NQS3, residues 58-549: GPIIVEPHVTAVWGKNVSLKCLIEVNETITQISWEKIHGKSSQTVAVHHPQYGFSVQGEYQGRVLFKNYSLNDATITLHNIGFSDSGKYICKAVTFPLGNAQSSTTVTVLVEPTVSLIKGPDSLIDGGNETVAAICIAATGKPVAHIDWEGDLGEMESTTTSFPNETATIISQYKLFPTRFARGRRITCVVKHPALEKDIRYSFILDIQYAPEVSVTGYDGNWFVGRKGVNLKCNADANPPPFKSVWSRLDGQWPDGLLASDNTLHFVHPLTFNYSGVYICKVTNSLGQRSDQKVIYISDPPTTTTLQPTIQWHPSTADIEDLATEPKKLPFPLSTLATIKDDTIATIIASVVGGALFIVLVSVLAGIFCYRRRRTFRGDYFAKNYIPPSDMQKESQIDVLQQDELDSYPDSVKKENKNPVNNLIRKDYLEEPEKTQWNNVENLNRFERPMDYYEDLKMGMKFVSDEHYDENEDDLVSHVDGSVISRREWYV
UniProt P78310, residues 20-365: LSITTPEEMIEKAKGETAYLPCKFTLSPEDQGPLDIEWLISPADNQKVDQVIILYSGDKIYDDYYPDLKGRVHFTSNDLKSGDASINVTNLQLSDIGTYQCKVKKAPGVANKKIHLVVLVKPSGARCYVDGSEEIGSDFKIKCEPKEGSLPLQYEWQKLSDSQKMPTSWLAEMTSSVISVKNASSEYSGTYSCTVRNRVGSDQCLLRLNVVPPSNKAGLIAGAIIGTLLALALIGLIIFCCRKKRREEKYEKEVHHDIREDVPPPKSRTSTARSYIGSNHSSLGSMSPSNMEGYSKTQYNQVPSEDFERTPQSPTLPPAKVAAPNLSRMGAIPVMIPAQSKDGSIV
UniProt P15311: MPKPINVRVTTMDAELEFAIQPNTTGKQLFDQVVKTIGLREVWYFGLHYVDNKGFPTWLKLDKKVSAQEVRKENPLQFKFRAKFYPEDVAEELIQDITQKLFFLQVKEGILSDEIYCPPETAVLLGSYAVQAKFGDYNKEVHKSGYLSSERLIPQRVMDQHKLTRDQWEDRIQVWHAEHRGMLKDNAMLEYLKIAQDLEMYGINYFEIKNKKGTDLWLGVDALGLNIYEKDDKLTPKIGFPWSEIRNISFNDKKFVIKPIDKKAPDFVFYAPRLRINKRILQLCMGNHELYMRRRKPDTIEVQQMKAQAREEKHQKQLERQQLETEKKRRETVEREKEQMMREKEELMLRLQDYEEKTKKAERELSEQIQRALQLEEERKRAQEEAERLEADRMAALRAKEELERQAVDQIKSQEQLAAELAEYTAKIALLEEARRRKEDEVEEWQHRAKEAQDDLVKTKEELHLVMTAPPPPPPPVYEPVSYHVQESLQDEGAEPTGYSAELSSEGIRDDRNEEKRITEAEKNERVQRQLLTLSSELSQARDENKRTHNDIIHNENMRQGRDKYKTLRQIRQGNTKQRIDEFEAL
UniProt Q13464: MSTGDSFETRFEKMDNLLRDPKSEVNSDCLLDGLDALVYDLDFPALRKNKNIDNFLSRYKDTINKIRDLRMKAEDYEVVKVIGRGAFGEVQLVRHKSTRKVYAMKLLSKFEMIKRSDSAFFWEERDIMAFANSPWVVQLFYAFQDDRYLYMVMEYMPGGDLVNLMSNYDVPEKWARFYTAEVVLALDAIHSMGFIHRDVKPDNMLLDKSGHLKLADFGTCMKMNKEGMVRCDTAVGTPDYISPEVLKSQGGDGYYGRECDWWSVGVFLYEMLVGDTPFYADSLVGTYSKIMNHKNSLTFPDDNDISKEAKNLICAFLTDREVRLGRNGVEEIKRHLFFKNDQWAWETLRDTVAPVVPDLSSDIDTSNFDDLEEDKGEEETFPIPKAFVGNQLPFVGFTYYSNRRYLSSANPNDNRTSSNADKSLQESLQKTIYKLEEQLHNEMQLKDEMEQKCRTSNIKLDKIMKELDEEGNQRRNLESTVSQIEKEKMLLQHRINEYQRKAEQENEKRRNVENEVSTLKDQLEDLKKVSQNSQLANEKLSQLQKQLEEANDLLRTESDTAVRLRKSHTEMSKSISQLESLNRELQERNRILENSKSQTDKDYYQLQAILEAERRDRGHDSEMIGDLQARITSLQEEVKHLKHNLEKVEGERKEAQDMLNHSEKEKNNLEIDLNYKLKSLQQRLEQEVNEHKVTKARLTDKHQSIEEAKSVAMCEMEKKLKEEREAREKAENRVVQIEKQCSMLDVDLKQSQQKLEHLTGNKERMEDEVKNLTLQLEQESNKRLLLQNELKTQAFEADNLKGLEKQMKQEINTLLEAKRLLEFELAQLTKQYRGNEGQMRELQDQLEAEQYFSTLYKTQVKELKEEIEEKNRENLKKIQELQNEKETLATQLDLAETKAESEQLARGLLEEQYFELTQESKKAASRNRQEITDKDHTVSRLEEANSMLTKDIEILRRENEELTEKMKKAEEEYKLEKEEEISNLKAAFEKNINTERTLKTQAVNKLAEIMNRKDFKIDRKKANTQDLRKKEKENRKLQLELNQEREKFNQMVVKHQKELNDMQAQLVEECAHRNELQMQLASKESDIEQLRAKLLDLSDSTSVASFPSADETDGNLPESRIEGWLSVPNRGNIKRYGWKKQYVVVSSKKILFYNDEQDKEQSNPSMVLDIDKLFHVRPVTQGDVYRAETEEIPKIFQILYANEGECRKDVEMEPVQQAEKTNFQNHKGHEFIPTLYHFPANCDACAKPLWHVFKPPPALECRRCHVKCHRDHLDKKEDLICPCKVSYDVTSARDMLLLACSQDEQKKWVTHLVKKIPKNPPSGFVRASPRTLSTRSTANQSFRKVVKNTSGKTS
UniProt P35222: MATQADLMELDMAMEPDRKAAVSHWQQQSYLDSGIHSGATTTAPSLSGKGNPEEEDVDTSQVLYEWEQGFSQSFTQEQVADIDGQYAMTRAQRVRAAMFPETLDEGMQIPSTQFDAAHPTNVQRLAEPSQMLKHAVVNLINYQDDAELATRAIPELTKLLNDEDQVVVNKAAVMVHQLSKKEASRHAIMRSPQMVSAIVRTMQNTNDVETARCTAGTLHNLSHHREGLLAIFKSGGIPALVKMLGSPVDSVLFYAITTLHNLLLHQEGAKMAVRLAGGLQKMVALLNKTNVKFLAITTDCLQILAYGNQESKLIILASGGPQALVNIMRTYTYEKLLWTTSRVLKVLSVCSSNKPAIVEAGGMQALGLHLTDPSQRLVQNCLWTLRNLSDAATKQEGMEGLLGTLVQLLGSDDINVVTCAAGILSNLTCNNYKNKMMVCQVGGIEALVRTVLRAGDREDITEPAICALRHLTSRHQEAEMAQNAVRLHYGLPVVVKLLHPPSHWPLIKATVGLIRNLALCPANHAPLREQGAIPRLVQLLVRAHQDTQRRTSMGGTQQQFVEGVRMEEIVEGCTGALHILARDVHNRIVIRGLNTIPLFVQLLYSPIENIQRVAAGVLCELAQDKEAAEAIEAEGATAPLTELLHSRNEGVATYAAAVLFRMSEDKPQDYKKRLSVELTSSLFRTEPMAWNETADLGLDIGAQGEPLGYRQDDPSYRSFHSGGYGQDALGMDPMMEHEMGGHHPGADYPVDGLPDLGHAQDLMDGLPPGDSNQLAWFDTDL
UniProt Q86UL8: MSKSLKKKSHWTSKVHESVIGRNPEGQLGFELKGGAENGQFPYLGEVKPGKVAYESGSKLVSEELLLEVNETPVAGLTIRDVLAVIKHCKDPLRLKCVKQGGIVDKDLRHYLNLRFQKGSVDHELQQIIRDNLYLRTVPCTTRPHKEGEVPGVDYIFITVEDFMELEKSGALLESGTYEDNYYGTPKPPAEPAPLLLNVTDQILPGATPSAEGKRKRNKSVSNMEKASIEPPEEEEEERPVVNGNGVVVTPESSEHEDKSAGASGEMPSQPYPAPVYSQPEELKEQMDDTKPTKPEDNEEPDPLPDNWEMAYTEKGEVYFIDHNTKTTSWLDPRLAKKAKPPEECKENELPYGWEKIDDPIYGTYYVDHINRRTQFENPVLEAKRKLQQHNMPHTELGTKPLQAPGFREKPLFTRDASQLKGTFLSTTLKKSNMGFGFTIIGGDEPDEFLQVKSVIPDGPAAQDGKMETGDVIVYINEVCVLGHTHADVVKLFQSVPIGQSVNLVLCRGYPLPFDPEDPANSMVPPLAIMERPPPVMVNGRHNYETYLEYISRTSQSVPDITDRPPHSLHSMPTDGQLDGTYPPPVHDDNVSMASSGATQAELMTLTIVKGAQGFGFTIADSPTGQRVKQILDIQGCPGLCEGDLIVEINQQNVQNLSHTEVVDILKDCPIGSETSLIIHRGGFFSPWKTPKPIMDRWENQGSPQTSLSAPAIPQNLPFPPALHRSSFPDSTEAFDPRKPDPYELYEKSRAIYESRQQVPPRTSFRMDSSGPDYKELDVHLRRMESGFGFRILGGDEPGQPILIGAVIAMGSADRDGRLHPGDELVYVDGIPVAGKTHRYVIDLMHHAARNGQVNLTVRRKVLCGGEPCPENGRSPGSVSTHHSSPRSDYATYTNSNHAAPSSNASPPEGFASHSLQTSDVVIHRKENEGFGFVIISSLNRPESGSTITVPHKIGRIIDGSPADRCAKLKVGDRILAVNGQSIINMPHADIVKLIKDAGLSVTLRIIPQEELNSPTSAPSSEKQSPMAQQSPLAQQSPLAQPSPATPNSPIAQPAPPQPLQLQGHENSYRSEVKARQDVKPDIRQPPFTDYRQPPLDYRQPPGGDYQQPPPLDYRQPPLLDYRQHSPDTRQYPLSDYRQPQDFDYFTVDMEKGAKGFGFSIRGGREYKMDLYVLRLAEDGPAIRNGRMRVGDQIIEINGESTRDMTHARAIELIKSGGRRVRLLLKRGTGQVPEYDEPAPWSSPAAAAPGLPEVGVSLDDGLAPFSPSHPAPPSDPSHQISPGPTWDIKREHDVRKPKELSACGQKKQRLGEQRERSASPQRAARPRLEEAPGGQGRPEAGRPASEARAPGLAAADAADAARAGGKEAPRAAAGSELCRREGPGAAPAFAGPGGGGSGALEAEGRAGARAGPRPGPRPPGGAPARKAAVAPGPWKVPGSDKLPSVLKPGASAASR
UniProt P26038: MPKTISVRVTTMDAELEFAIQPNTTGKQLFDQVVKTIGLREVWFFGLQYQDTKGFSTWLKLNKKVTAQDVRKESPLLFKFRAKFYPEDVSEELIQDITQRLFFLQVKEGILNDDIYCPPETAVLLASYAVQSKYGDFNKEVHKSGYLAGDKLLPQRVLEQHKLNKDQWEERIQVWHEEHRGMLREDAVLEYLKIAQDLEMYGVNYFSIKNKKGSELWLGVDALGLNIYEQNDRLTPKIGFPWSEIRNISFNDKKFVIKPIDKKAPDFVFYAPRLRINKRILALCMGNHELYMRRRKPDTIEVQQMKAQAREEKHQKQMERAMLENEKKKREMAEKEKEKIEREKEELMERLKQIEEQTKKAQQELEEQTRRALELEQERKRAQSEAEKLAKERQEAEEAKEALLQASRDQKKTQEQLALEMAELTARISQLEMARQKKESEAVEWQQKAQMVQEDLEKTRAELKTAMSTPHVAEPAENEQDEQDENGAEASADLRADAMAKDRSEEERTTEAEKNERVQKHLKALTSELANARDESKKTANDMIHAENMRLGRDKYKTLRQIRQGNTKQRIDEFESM
UniProt P35241: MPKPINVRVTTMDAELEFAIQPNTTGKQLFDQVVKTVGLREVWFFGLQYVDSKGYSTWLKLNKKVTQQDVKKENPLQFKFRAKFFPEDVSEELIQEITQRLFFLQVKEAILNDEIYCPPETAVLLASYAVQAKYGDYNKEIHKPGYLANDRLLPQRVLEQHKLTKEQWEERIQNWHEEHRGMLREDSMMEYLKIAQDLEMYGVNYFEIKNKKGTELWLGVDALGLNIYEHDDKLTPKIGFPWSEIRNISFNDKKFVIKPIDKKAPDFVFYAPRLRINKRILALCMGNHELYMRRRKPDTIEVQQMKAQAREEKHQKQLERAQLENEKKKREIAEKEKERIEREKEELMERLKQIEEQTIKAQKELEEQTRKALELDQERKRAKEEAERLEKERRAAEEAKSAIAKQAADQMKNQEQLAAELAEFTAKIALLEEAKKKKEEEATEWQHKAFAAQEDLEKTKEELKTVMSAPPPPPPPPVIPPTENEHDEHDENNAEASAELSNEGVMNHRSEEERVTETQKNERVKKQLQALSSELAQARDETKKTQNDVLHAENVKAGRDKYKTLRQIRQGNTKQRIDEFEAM

Legend:
[1] = target: Nectin-3 (human (endogenous in the paper's human cell lines; line not stated)) (UniProt Q9NQS3); experiment: co-IP; cell lysate (cell line not stated) precipitated with anti-Nectin-3 antibody (A, C-19, C-terminus) or (B, K-20, internal region), 1:100, protein A/G agarose overnight; blots probed for the partners; lysis in HCMF buffer with 0.5% SDS, 0.5% Triton X-100, 2 mM CaCl2
[2] = target: CAR (human (endogenous in the paper's human cell lines; line not stated)) (UniProt P78310); experiment: co-IP; cell lysate (cell line not stated) precipitated with antibodies to the partner proteins, protein A/G agarose; blots probed with anti-Nectin-3 (A) (for Ezrin with A and B); lysis in HCMF buffer with 0.5% SDS, 0.5% Triton X-100, 2 mM CaCl2
[3] = target: Ezrin (human (endogenous in the paper's human cell lines; line not stated)) (UniProt P15311); experiment: as above
[4] = target: ZO-1 (human (endogenous in the paper's human cell lines; line not stated)) (UniProt Q07157); experiment: as above
[5] = target: T1, Occludin (human (endogenous in the paper's human cell lines; line not stated)) (UniProt Q16625); experiment: as above
T1 sequence: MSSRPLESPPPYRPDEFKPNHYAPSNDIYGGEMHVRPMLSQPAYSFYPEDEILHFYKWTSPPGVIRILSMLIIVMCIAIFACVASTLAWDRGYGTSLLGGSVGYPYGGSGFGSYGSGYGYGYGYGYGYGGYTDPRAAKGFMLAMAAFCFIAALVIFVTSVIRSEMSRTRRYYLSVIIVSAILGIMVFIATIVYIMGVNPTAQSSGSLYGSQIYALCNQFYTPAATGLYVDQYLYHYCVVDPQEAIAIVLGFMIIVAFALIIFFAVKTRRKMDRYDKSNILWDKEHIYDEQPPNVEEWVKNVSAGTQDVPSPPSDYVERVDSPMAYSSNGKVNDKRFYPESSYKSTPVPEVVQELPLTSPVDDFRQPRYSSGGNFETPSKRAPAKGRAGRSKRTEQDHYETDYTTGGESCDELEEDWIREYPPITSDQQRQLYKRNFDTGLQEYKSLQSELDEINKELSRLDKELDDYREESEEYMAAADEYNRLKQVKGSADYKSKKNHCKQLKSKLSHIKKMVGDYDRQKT

[6] = target: ROCKI (human (endogenous in the paper's human cell lines; line not stated)) (UniProt Q13464); experiment: as above
[7] = target: T2, SIPA-1 (human (endogenous in the paper's human cell lines; line not stated)) (UniProt Q96FS4); experiment: as above
T2 sequence: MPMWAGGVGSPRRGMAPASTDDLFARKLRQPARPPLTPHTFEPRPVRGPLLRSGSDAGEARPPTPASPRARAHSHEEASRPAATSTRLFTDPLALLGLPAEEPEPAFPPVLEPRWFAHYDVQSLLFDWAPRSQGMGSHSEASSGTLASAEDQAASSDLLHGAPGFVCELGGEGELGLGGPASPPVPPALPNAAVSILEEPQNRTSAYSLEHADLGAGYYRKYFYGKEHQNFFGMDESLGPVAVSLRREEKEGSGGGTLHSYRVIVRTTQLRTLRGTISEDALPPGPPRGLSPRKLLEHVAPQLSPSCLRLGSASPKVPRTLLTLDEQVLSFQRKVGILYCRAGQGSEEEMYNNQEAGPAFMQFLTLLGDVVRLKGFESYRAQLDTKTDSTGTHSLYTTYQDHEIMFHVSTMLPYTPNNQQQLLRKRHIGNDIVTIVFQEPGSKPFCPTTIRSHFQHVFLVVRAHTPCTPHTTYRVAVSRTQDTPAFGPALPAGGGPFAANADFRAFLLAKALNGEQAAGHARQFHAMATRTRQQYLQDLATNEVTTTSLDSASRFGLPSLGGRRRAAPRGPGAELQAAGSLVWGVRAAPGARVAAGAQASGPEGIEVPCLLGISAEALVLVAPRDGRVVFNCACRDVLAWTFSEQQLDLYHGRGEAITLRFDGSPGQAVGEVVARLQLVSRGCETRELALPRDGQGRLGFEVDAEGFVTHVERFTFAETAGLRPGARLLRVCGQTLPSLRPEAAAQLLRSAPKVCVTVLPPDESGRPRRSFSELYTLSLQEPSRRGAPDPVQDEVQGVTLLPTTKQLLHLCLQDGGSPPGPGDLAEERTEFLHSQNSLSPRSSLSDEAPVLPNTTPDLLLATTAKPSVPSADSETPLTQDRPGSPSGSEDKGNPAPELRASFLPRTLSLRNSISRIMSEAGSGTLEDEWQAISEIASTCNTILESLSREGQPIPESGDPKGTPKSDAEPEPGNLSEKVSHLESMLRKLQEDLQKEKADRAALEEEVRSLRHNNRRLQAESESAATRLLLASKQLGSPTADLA

[8] = target: β-catenin (human (endogenous in the paper's human cell lines; line not stated)) (UniProt P35222); experiment: as above

For Ezrin (from UniProt P15311 1-586), which binding [1] is on record?
The binding was “binds”.

With MAGI-2 (from UniProt Q86UL8 1-1455) as the substance, how does the binding [1] read?
The binding was “binds”.

For Moesin (from UniProt P26038 1-577), which binding [1] is on record?
The binding was “binds”.

With Nectin-3 (from UniProt Q9NQS3 58-549) as the substance, how does the binding [2] read?
The binding was “binds”.

What about the binding [3] of the same substance?
The binding was “binds”.

And the binding [4]?
The binding was “binds”.

And the binding [5]?
The binding was “binds”.

What about the binding [6] of the same substance?
Its binding is “binds”.

What about the binding [7] of the same substance?
The binding was “binds”.

What about the binding [8] of the same substance?
The binding was “binds”.

How did the binding [1] turn out when Radixin (from UniProt P35241 1-583) was run?
Its binding is “binds”.

ZO-1 (from UniProt Q07157 1-1748) was tested. Which binding [1] did it give?
The binding was “binds”.

With β-catenin (from UniProt P35222 1-781) as the substance, how does the binding [1] read?
The binding was “binds”.
